{"source": "patent US20230346777A1", "about": "“USE OF SGC ACTIVATORS FOR THE TREATMENT OF OPHTHALMOLOGIC DISEASES” (Bayer Aktiengesellschaft, priority 2020, published 2023)", "test": "Pharmacokinetic parameters following intravenous and oral administration in rats", "format": "in vivo, male Wistar rats", "conditions": "in rats as well as in dogs (tables 3 and 5)", "procedure": "B-2. Determination of Pharmacokinetic Parameters Following Intravenous and Oral Administration\nThe pharmacokinetic parameters of the compounds according to the invention were determined in male Wistar rats and/or in female beagles and/or in cynomolgus monkeys and/or in male CD-1 mice. Intravenous administration in the case of mice and rats was carried out by means of a species-specific plasma/DMSO formulation, and in the case of dogs and monkeys by means of a water/PEG400/ethanol formulation. In all species, oral administration of the dissolved substance was performed via gavage, based on a water/PEG400/ethanol formulation.\nAn internal standard (which may also be a chemically unrelated substance) was added to the samples of the compounds of the invention, calibration samples and qualifiers, and there followed protein precipitation by means of acetonitrile in excess. […] The supernatant was analysed by LC-MS/MS using C18 reversed-phase columns and variable mobile phase mixtures. The substances were quantified via the peak heights or areas from extracted ion chromatograms of specific selected ion monitoring experiments.\nThe plasma concentration/time plots determined were used to calculate the pharmacokinetic parameters such as AUC, Cmax, t1/2 (terminal half-life), F (bioavailability), MRT (mean residence time) and CL (clearance), by means of a validated pharmacokinetic calculation program. […]", "note": "Counter-ions that a name gives are not always drawn. Some entries share one result that the patent states for a list of compounds.", "data": [{"smiles": "CC(C)CN1CCN(c2ccc(-c3ccc(Cl)cc3N3CCC[C@@H](n4ncc(C(=O)O)c4C(F)F)C3)cc2)CC1", "note": "(single isomer, unassigned) [Example 2, 1-[1-{4-Chloro-4′-[4-(2-methylpropyl)piperazin-1-yl][1,1′-biphenyl]-2-yl}piperidin-3-yl]-5-(difluoromethyl)-1H-pyrazole-4-carboxylic acid]", "values": [{"measurement": "lower CLplasma in comparison to example 174 (WO2012/058132)", "value": "up to 10 times"}]}, {"smiles": "CC(C)CN1CCN(c2ccc(-c3ccc(Cl)cc3N3CCCC(n4ncc(C(=O)O)c4C(F)(F)F)C3)cc2)CC1", "note": "(single isomer, unassigned) [Example 9, 1-[1-{4-chloro-4′-[4-(2-methylpropyl)piperazin-1-yl][1,1′-biphenyl]-2-yl}piperidin-3-yl]-5-(trifluoromethyl)-1H-pyrazole-4-carboxylic acid hydrochloride]", "values": [{"measurement": "lower CLplasma in comparison to example 174 (WO2012/058132)", "value": "up to 10 times"}]}]}
